PubChem BioAssay AID1259308 | NCATS – 2017

- Assay: 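Candidate targets for better recombinant protein yield in mammalian cells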 (primary screen)
- Cell system: human HEK293 embryonic kidney cells stably expressing firefly luciferase (HEK-CMV-Luc2-Hygro)
- Knock-down reagent: single siRNA against human genes, 0.8 pmol siRNA per well
- Timing: 72 h
- Read-out: 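Luciferase light (ONE-Glo) measured on one replicate plate set and viability (CellTiter-Glo) on the other, scaled to a negative control siRNA, with robust z-scores and luciferase per cell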
- Scale: total luciferase, z-score and total luciferase, % of control: higher = more reporter protein produced
- Rule for the call: 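Active when the median/MAD z-score for overall luciferase is greater than 3; a gene was taken forward for validation with new siRNAs if at least two of its three siRNAs passed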
- Meaning of the calls: active = raised luciferase; inactive = no rise
Shown is one part, drawn at random, of about 59,000 deposited reagents. About 1,510 of all reagents (2.6%) were called active. 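Calls use total luciferase alone and ignore viability, so some active siRNAs may act by altering cell number.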 Entries without a mark were called inactive. Reagents against one gene are numbered here. Not all columns of the deposit are shown.

The first 3 records as a preview:
SH3YL1 #1 — total luciferase, z-score = 0.0484; total luciferase, % of control = 82.8
SH3YL1 #2 — total luciferase, z-score = 0.701; total luciferase, % of control = 95.8
SH3YL1 #3 — total luciferase, z-score = -0.619; total luciferase, % of control = 69.6

The listing, repeating the preview:
SH3YL1 #1 — total luciferase, z-score = 0.0484; total luciferase, % of control = 82.8
SH3YL1 #2 — total luciferase, z-score = 0.701; total luciferase, % of control = 95.8
SH3YL1 #3 — total luciferase, z-score = -0.619; total luciferase, % of control = 69.6
OR7A5 #1 — total luciferase, z-score = -0.407; total luciferase, % of control = 73.8
OR7A5 #2 — total luciferase, z-score = -0.21; total luciferase, % of control = 77.7
OR7A5 #3 — total luciferase, z-score = 1.04; total luciferase, % of control = 102
GAL3ST2 #1 — total luciferase, z-score = -0.373; total luciferase, % of control = 74.5
GAL3ST2 #2 — total luciferase, z-score = -1.49; total luciferase, % of control = 52.3
GAL3ST2 #3 — total luciferase, z-score = 5.18 (active); total luciferase, % of control = 185
MIS18BP1 #1 — total luciferase, z-score = 3.06 (active); total luciferase, % of control = 143
MIS18BP1 #2 — total luciferase, z-score = -0.0672; total luciferase, % of control = 80.6
MIS18BP1 #3 — total luciferase, z-score = 0.902; total luciferase, % of control = 99.8
BHLHE40 #1 — total luciferase, z-score = 0.257; total luciferase, % of control = 87
BHLHE40 #2 — total luciferase, z-score = -0.731; total luciferase, % of control = 67.3
BHLHE40 #3 — total luciferase, z-score = 0.208; total luciferase, % of control = 86
SUMO3 #1 — total luciferase, z-score = -0.0954; total luciferase, % of control = 80
SUMO3 #2 — total luciferase, z-score = -2.71; total luciferase, % of control = 27.9
SUMO3 #3 — total luciferase, z-score = 1.35; total luciferase, % of control = 109
GCA #1 — total luciferase, z-score = -0.311; total luciferase, % of control = 75.7
GCA #2 — total luciferase, z-score = -1.13; total luciferase, % of control = 59.5
GCA #3 — total luciferase, z-score = 0.318; total luciferase, % of control = 88.2
RPGRIP1L #1 — total luciferase, z-score = 1.04; total luciferase, % of control = 103
RPGRIP1L #2 — total luciferase, z-score = 0.279; total luciferase, % of control = 87.4
RPGRIP1L #3 — total luciferase, z-score = -0.409; total luciferase, % of control = 73.8
IL36RN #1 — total luciferase, z-score = -1.56; total luciferase, % of control = 50.9
IL36RN #2 — total luciferase, z-score = -1.33; total luciferase, % of control = 55.4
IL36RN #3 — total luciferase, z-score = -1.46; total luciferase, % of control = 52.8
CEP135 #1 — total luciferase, z-score = 0.519; total luciferase, % of control = 92.2
CEP135 #2 — total luciferase, z-score = 0.456; total luciferase, % of control = 90.9
CEP135 #3 — total luciferase, z-score = 1.5; total luciferase, % of control = 112
SKIC8 #1 — total luciferase, z-score = -0.94; total luciferase, % of control = 63.2
SKIC8 #2 — total luciferase, z-score = -1.17; total luciferase, % of control = 58.5
SKIC8 #3 — total luciferase, z-score = -0.487; total luciferase, % of control = 72.2
